Experimental data from PMC5440498.

Assays:
[1] = test system: His-MBP-eYFP-PRDM9Cst-ZnF; assay: competition with a labelled probe; settings: EMSA (chimeras): 10 mM Tris-HCl pH 7.5, 50 mM KCl, 1 mM DTT, 50 ng/ul polydIdC, 0.05% NP-40, 50 uM ZnCl2, protein in a lysate after overexpression, protein details: His-MBP-eYFP
[2] = molecular target: PRDM9Cst-ZnF (YFP presence not stated for this assay) (UniProt W0TX95); assay: switchSENSE; settings: 5' thiol (HSC6) on strand 1, protein in a lysate after overexpression, protein details: His-MBP, with or without eYFP, label: 3' fluorescent dye on strand 1
[3] = molecular target: PRDM9Cst-ZnF (YFP presence not stated for this assay) (UniProt W0TX95); assay: EMSA; settings: titrated low polydIdC, 0.03% sarcosyl, ~90 h; EMSA (chimeras): 10 mM Tris-HCl pH 7.5, 50 mM KCl, 1 mM DTT, 50 ng/ul polydIdC, 0.05% NP-40, 50 uM ZnCl2; protein in a lysate after overexpression; protein details: His-MBP, with or without eYFP; label: 5' biotin
[4] = molecular target: PRDM9Cst-ZnF (YFP presence not stated for this assay) (UniProt W0TX95); assay: competition with a labelled probe; settings: 100-fold excess added simultaneously with 75 bp hot Hlx1 B6; EMSA (chimeras): 10 mM Tris-HCl pH 7.5, 50 mM KCl, 1 mM DTT, 50 ng/ul polydIdC, 0.05% NP-40, 50 uM ZnCl2; protein in a lysate after overexpression; protein details: His-MBP, with or without eYFP
[5] = significantly reduced versus 31 bp or longer

AATAGTGTGCAGACTTGGACCCTGCCCTTTCTTT (double strand) [cold Hlx1 B6 34 bp]
binding result ([1]; similar to 31 bp, weaker than 75 bp): binds

AGTGTGCAGACTTGGACCCTGCCCTTTC (double strand) [cold Hlx1 B6 28 bp-d]
binding result [1, 5]: binds more weakly

AGTGTGCAGACTTGGACCCTGCCCTTTCTTT (double strand) [cold Hlx1 B6 31 bp]
binding result ([1]; similar to 34 bp, weaker than 75 bp): binds

CTGCCTAAAGGTCAGAATCCACCATAGTGAGAGATAGCAAGTGCTGCT (double strand) [usDNA 48 bp]
binding result ([2]; 50 ng/ul polydIdC, up to 1250 nM protein): no binding

GATGGTGGGTGAATAGTGTGCAGACTTGGACCCTGCCCTTTCTTTACG (double strand) [Hlx1 B6 48 bp]
Kd ([2]; 50 ng/ul polydIdC, kon 135 M-1 s-1, koff 2.2e-5 s-1): 160 nM
Kd ([2]; titrated low polydIdC, kon 725 M-1 s-1, koff 1.1e-5 s-1): 15.7 nM
Kd ([2]; titrated low polydIdC, kon 1908 M-1 s-1, koff 1.4e-5 s-1): 7.2 nM

GTGCAGACTTGGACCCTGCCCTTTCTTT (double strand) [cold Hlx1 B6 28 bp-u]
binding result [1, 5]: binds more weakly

GTGGGAGGAGATGGTGGGTGAATAGTGTGCAGACTTGGACCCTGCCCTTTCTTTACGCATTCCACTAACCATGGG (double strand) [Hlx1 B6 75 bp (hot)]
Kd [3]: 24.5 nM

GTGGGAGGAGATGGTGGGTGAATAGTGTGCAGACTTGGACCCTGCCCTTTCTTTACGCATTCCACTAACCATGGG (double strand) [cold Hlx1 B6 75 bp]
binding result ([1]; strongest competitor, significantly better than 31 and 34 bp): binds

TGAATAGTGTGCAGACTTGGACCCTGCCCTTTCTTTACG (double strand) [cold Hlx1 B6 39 bp]
binding result ([1]; stronger than 31 and 34 bp): binds
binding result [4]: binds

For at least one entry, the source does not settle the construct or the ends of the probe. At least one result comes from cells or an extract, where the contact may be indirect. For part of these data: No signal at the amounts used counts as a negative. For part of these data: A weaker result is weaker than the reference pair of the same experiment.
